The values below come from patent publication US20150299614A1, “IMPROVEMENTS IN OR RELATING TO ORGANIC COMPOUNDS” (Givaudan, S.A., priority 2012, published 2015).

This series in a line: Odour description / strength. As to conditions: ethanol solution of Example 2a.

Consider `COc1cc(C=O)ccc1O` [Vanillin], for which the Odour result is reported as “vanilla”.

As for `CCOc1cc(C=NOC)ccc1O` [Cpd I (R1 = Et, R2 = Me), 3-ethoxy-4-hydroxybenzaldehyde O-methyl oxime], the Odour result was “Spicy vanilla floral”.
